Measured values taken from patent US20170267727A1, “Conjugates of pH Low Insertion Peptide and Monomethyl Auristatins in the Treatment of Solid Tumors” (Lehigh University, priority 2016, published 2017).
For at least one compound, name, drawing or mass did not settle the structure. Positions of bridges follow the written chain, without caps; N, C: chain ends. Non-standard residues stand in square brackets, D forms with d. Chains are numbered I, II in the order given. *: point of attachment. Dolaproine = CO[C@@H]([C@@H]1CCCN1)[C@@H](C)C(=O)O; Dil = CC[C@H](C)[C@H](NC)[C@@H](CC(=O)O)OC; X1 = C[C@@H](N*)[C@@H](O)c1ccccc1; NMeV = CN[C@H](C(=O)O)C(C)C; Mpa = O=C(O)CCS

Key:
HeLa cells = test: Anti-proliferation Assay (2 hours treatment at pH 7.4 or 5.0, 72 hours growth, MTT)
Procedure: (§1) FIG. 3A, FIG. 3C and FIG. 3E show HeLa cells treated with pHLIP(WT)-MMAE, pHLIP(D25E)-MMAE, and MMAE(linker), respectively. FIG. 3B, FIG. 3D and FIG. 3F show MDA-MB-231 cells treated with pHLIP(WT)-MMAE, pHLIP(D25E)-MMAE, and MMAE(linker), respectively. Black columns represent cells treated at pH 7.4 and cells treated at low pH are shown in grey. For each condition, 3,000 cells/well (96-well plate) were seeded, allowed to adhere overnight, treated for 2 hours, washed once with media and grown for 72 hour in complete medium at physiologic pH. Cell viability was assessed with the MTT assay. All measurements were normalized to the media control (0 μM, pH 7.4), as 100% cell viability. Results are shown as mean±SD (n=6-9).
HeLa cells treated with pHLIP(WT)-MMAF (FIG. 9A), pHLIP(D25E)-MMAF (FIG. 9B), pHLIP(P20G)-MMAF (FIG. 9C), and pHLIP(R11Q)-MMAF (FIG. 9D). Circles represent cells treated at pH 7.4 and squares represent cells treated at pH 5.0. Results are shown as the mean±SEM (n=6-9).
Anti-proliferation Assay. HeLa and MDA-MB-231 cells were seeded in 96-well plates at a density of 3,000 cells/well and incubated overnight. Before treatment, construct aliquots were solubilized in an appropriate volume of DMEM without FBS (pH 7.4)—so that upon pH adjustment the desired treatment concentration is obtained—and gently sonicated for 30-60 seconds using a bath sonicator (Branson Ultrasonics). After removal of cell media, this treatment solution was added to each well and incubated at 37° C. for 5-10 minutes. The pH was then adjusted to the desired value using a pre-established volume of DMEM, pH 2.0 buffered with citric acid (final volume=50 μL) and the plate was incubated at 37° C. for 2 hours. After treatment, the media was removed, cells were washed once with 100 μL of complete DMEM, and 100 μL of complete medium was added to each well before returning the plate to the incubator. Treatment solutions were collected and their pH values measured using a micro-combination pH probe (Microelectrodes, Inc.). […] Cell viability was determined after 72 hours using the colorimetric MTT assay. Briefly, 10 μL of a 5 mg/mL MTT stock solution was added to the treated cells and incubated for 2 hours at 37° C. The resulting formazan crystals were solubilized in 200 μL DMSO and the absorbance measured at 580 nm using an Infinite 200 PRO microplate reader (Tecan). Cell viability was calculated against control cells treated with media at physiologic pH.
(§2) Inhibition of Cell Proliferation. The ability of pHLIP to move MMAE across the cell membrane and to inhibit cancer cell proliferation in concentration and pH-dependent manners was evaluated. […]

MDA-MB-231 cells = test: as above
Procedure: as §1
Anti-proliferation Assay. […] Treatment solutions were collected and their pH values measured using a micro-combination pH probe (Microelectrodes, Inc.). […] Cell viability was determined after 72 hours using the colorimetric MTT assay. […] The resulting formazan crystals were solubilized in 200 μL DMSO and the absorbance measured at 580 nm using an Infinite 200 PRO microplate reader (Tecan). Cell viability was calculated against control cells treated with media at physiologic pH.
as §2

Substance | cell viability (HeLa cells; low pH, 1.25 μM) [%] | cell viability (HeLa cells; low pH, 10 μM) [%] | cell viability (HeLa cells; pH 7.4, 5 μM) | cell viability (HeLa cells; pH 7.4, 10 μM) [%] | cell viability (MDA-MB-231 cells; pH 7.4, 5 μM) | cell viability (MDA-MB-231 cells; pH 7.4, 10 μM) [%]
I: H-AAEQNPIYWARYADWLFTTPLLLLDLALLVDADEGTCG-OH / II: [Mpa][NMeV]V[Dil][Dolaproine]-X1 (disulfide I:37-II:1) [pHLIP(WT)-MMAE] | 80 | 7 | – | – | – | –
I: H-AAEQNPIYWARYADWLFTTPLLLLELALLVDADEGTCG-NH2 / II: [Mpa][NMeV]V[Dil][Dolaproine]-X1 (disulfide I:37-II:1) [pHLIP(D25E)-MMAE] | – | – | about 75% | ~40 | about 75% | ~40
